These are yes or no findings as the source states them, for the method shown. In cells and extracts the contact can be indirect. Some results given as binding are weak or reduced against the parent protein; the word gives no strength. Sequences can lack the tags named with a protein.
Target: T1, nuclear speckle-related protein 70 (NSrp70), GFP-tagged wild type (UniProt Q9H0G5)
T1 sequence: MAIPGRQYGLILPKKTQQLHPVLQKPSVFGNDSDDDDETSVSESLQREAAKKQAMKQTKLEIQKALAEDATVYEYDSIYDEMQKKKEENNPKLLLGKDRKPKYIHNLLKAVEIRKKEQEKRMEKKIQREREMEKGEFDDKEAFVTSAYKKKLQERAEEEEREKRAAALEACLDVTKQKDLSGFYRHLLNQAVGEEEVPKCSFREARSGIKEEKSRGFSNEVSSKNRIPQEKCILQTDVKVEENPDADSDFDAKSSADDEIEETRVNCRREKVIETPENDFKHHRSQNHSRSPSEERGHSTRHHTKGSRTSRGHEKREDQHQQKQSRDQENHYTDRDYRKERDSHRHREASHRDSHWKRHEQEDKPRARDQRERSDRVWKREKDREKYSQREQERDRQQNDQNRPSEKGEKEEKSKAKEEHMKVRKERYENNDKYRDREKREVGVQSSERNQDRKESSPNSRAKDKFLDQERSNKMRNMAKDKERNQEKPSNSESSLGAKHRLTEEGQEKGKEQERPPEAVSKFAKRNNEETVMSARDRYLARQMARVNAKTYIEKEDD
Assay: co-IP; lysates of transfected HEK293T cells, precleared; antibodies overnight at 4°C, protein A/G agarose beads, washed with PBS; western blot

The chains behind the UniProt entries cited, without tags or fusion partners.
UniProt Q07955: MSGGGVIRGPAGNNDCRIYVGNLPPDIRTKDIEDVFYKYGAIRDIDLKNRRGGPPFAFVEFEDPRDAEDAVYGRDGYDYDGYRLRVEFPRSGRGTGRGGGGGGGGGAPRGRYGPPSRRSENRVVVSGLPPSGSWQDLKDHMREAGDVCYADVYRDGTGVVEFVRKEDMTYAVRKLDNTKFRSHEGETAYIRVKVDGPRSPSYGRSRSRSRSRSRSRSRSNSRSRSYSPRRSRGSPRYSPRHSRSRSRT
UniProt Q13547: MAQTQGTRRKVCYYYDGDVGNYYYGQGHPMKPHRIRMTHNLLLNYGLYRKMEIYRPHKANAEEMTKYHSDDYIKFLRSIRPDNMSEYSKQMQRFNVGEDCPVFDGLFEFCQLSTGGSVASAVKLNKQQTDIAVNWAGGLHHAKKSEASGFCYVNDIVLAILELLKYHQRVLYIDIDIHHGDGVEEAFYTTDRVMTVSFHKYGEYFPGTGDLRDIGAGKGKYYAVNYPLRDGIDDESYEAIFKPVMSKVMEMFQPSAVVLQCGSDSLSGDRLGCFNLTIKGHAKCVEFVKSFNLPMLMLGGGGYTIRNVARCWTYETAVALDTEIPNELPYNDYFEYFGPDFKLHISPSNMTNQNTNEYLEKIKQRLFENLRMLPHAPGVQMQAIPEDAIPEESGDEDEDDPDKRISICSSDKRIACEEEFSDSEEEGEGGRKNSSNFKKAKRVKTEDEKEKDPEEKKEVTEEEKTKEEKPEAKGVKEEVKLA

Row | binding | Substance
1 | binds | SRSF1, mCherry-fused (from UniProt Q07955 1-248)
2 | no binding | histone deacetylase 1 (HDAC1) (from UniProt Q13547 1-482)

— article PMC8191771
